Measured values taken from US7365078B2, “Triaza-cyclopenta[cd]indene derivatives” (Taisho Pharmaceutical Co., Ltd., priority 2004, dated 2008).
Some of these results come from one statement about several compounds together.

Target: T1, CRF receptors (monkey amygdala membranes) (Macaca mulatta, UniProt Q76LL8)
T1 sequence (Q76LL8 24-415): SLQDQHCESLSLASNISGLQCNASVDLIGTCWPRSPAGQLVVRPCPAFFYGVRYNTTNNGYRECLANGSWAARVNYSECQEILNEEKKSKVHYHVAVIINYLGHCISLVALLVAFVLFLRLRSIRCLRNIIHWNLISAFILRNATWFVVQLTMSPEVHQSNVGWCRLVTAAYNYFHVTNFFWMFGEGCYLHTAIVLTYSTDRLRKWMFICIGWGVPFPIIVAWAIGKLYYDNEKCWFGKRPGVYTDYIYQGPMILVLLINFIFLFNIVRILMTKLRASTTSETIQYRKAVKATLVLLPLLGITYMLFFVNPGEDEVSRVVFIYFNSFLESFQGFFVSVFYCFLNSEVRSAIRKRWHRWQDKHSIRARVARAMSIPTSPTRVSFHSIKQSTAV
Assay: CRF receptor binding test (125I-CRF)
Settings: 0.2 nM 125I-CRF, 25° C. for 2 hours, read-out: IC50 (concentration of the test drug at which binding of 125I-CRF is inhibited by 50%)

| SMILES | IC50 [µM] |
| --- | --- |
| CCC(CC)n1c(=NC)c2cc(-c3c(C)cc(Br)cc3C)c3nc(C)cc1n32 [1-015] | ≤ 0.1 |
| CCC(COC)n1c(=NC)c2cc(-c3c(C)cc(Br)cc3C)c3nc(C)cc1n32 (stereo not drawn) [1-017] | ≤ 0.1 |
| CN=c1c2cc(-c3c(C)cc(Br)cc3C)c3nc(C)cc(n1C(C)CC(C)C)n32 (stereo not drawn) [1-021] | ≤ 0.1 |
